PubChem BioAssay AID1259275 | Sanger Institute | 2017

Screen: 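Kinase and colorectal cancer genes needed for cancer cell survival, with or without drugs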 (primary screen)
System: COLO320HSR human colorectal cancer cells
Reagents: siRNA pool against human genes
Challenge: anchor drug added one day after transfection: BYL719 at 1 µM, cetuximab at 5 µg/ml or trametinib at 10 nM; DMSO as vehicle arm
Read-out: 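Viability averaged over replicates as a fraction of the non-targeting pool, a robust z-score for knock-down alone, and synergy scores with BYL719 (1 µM), cetuximab (5 µg/ml) or trametinib (10 nM)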
Reading the numbers: robust z-score, siRNA alone: higher = more viable cells; strongly negative means essential; viability, knock-down alone (DMSO): higher = more viable cells
Active means: 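a gene is called essential when its robust z-score without drug falls below -3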
Calls: active = essential (siRNA alone); inactive = no change (siRNA alone)
Shown is one part, drawn at random, of 794 deposited reagents. In the full data, 13 (1.6%) were called active. 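Calls mark knock-downs lethal by themselves, not drug synergy; drugs went in a day after transfection, with DMSO as vehicle.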 No viability above 1 is reported: the scale is capped. Not all columns of the deposit are shown. Not stated in the record: the amount of reagent, the time to read-out.

| gene | robust z-score, siRNA alone | viability, knock-down alone (DMSO) (fraction of control) | Call |
| --- | --- | --- | --- |
| CSNK1A1 (casein kinase 1 alpha 1) | -1.56 | 0.794 | inactive |
| STAG2 (STAG2 cohesin complex component) | 0.726 | 1 | inactive |
| PRPS1L1 (phosphoribosyl pyrophosphate synthetase 1 like 1) | 0.726 | 1 | inactive |
| PEAK1 (pseudopodium enriched atypical kinase 1) | -0.311 | 0.906 | inactive |
| EPHB2 (EPH receptor B2) | 0.726 | 1 | inactive |
| SRMS | -0.726 | 0.869 | inactive |
| NEK5 (NIMA related kinase 5) | 0.726 | 1 | inactive |
| ACVR2B (activin A receptor type 2B) | 0.695 | 0.997 | inactive |
| SF3B1 (splicing factor 3b subunit 1) | -6.2 | 0.375 | active |
| BRSK2 (BR serine/threonine kinase 2) | 0.722 | 1 | inactive |
| AURKC (aurora kinase C) | 0.726 | 1 | inactive |
| SIK2 (salt inducible kinase 2) | -0.273 | 0.91 | inactive |
| GRK7 (G protein-coupled receptor kinase 7) | -0.0507 | 0.93 | inactive |
| MAPK10 (mitogen-activated protein kinase 10) | 0.238 | 0.956 | inactive |
| CKM (creatine kinase, M-type) | -0.814 | 0.861 | inactive |
| CDK9 (cyclin dependent kinase 9) | 0.726 | 1 | inactive |
| NEK8 (NIMA related kinase 8) | -0.0321 | 0.932 | inactive |
| BPTF (bromodomain PHD finger transcription factor) | 0.726 | 1 | inactive |
| NME6 (NME/NM23 nucleoside diphosphate kinase 6) | 0.0485 | 0.939 | inactive |
| AKT3 (AKT serine/threonine kinase 3) | -0.475 | 0.892 | inactive |
| CKMT1B (creatine kinase, mitochondrial 1B) | -0.201 | 0.916 | inactive |
| PDXK (pyridoxal kinase) | -0.0155 | 0.933 | inactive |
| MYO3A (myosin IIIA) | -1.19 | 0.827 | inactive |
| TRIM27 (tripartite motif containing 27) | 0.236 | 0.956 | inactive |
| PNKP (polynucleotide kinase 3'-phosphatase) | -0.975 | 0.846 | inactive |
| CAMK4 (calcium/calmodulin dependent protein kinase IV) | 0.726 | 1 | inactive |
| RBKS (ribokinase) | 0.726 | 1 | inactive |
| CHUK | 0.726 | 1 | inactive |
| PRKACA (protein kinase cAMP-activated catalytic subunit alpha) | 0.726 | 1 | inactive |
| RPS6KL1 (ribosomal protein S6 kinase like 1) | 0.726 | 1 | inactive |
| ZC3H11A (zinc finger CCCH-type containing 11A) | 0.726 | 1 | inactive |
| SKAP1 (src kinase associated phosphoprotein 1) | 0.726 | 1 | inactive |
| MLKL (mixed lineage kinase domain like pseudokinase) | 0.169 | 0.95 | inactive |
| DLG4 (discs large MAGUK scaffold protein 4) | 0.726 | 1 | inactive |
| DIS3 (DIS3 exosome endoribonuclease and 3'-5' exoribonuclease) | 0.726 | 1 | inactive |
| CDK11B (cyclin dependent kinase 11B) | -0.537 | 0.886 | inactive |
| KCNH8 (potassium voltage-gated channel subfamily H member 8) | 0.584 | 0.987 | inactive |
| HUNK (hormonally up-regulated Neu-associated kinase) | 0.726 | 1 | inactive |
| CASK (calcium/calmodulin dependent serine protein kinase) | 0.266 | 0.958 | inactive |
| MPP3 (MAGUK p55 scaffold protein 3) | -0.373 | 0.901 | inactive |
| RIPK2 (receptor interacting serine/threonine kinase 2) | 0.0361 | 0.938 | inactive |
| ROCK1 (Rho associated coiled-coil containing protein kinase 1) | 0.726 | 1 | inactive |
| MAP4K3 (mitogen-activated protein kinase kinase kinase kinase 3) | -0.986 | 0.845 | inactive |
| ATM (ATM serine/threonine kinase) | 0.191 | 0.952 | inactive |
| ABL2 (ABL proto-oncogene 2, non-receptor tyrosine kinase) | 0.726 | 1 | inactive |
| IP6K3 (inositol hexakisphosphate kinase 3) | -1.51 | 0.798 | inactive |
| PFKFB1 (6-phosphofructo-2-kinase/fructose-2,6-biphosphatase 1) | 0.24 | 0.956 | inactive |
| PRKCZ (protein kinase C zeta) | -0.626 | 0.878 | inactive |
| PTK7 (protein tyrosine kinase 7 (inactive)) | -1.11 | 0.834 | inactive |
| GOLGA5 (golgin A5) | 0.165 | 0.949 | inactive |
| MINK1 (misshapen like kinase 1) | -0.212 | 0.915 | inactive |
| PFKFB4 (6-phosphofructo-2-kinase/fructose-2,6-biphosphatase 4) | 0.519 | 0.981 | inactive |
| MASTL (microtubule associated serine/threonine kinase like) | 0.726 | 1 | inactive |
| CHKA (choline kinase alpha) | -0.751 | 0.867 | inactive |
| GRK2 (G protein-coupled receptor kinase 2) | 0.54 | 0.983 | inactive |
| TSSK2 (testis specific serine kinase 2) | 0.0584 | 0.94 | inactive |
| MAP3K7 (mitogen-activated protein kinase kinase kinase 7) | 0.717 | 0.999 | inactive |
| ARAF (A-Raf proto-oncogene, serine/threonine kinase) | 0.402 | 0.971 | inactive |
| EGFR (epidermal growth factor receptor) | -0.139 | 0.922 | inactive |
| HUS1 (HUS1 checkpoint clamp component) | 0.726 | 1 | inactive |
| CMPK1 (cytidine/uridine monophosphate kinase 1) | 0.726 | 1 | inactive |
| SIK1 (salt inducible kinase 1) | -1.64 | 0.787 | inactive |
| GCK (glucokinase) | -0.759 | 0.866 | inactive |

Reprinted from above, 3 entries:
| gene | robust z-score, siRNA alone | viability, knock-down alone (DMSO) (fraction of control) | Call |
| --- | --- | --- | --- |
| CDK11B (cyclin dependent kinase 11B) | -0.537 | 0.886 | inactive |
| KCNH8 (potassium voltage-gated channel subfamily H member 8) | 0.584 | 0.987 | inactive |
| HUNK (hormonally up-regulated Neu-associated kinase) | 0.726 | 1 | inactive |
